Test results as given in PubChem BioAssay AID2685 (National Center for Advancing Translational Sciences (NCATS), 2010).
The list shows a part of the results. Further columns of the screen follow, without active or inactive calls. The list favours compounds with an active or inconclusive main result. Potencies come from curve fits of mixed quality, noted in brackets.

Assay: qHTS Assay for Lipid Storage Modulators in Drosophila S3 Cells;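 as to cell number change: cells counted by Cell Tracker Red CMTPX staining in the red channel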
Conditions: BODIPY lipid droplet fluorescence, 18-24 h; for cell number change: measured here: cell count max response, cells fed with added oleic acid
Summary of the method: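 Laser-scanning cytometry quantifies lipid droplet accumulation (500–530 nm total intensity; droplet/cell object ratio) in oleic acid-fed (400 uM added) Drosophila S3 cells treated with a concentration series. 20 uM Triacsin C defined 100% inhibition.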

[1] = measured here: cell number channel AC50, cells fed with added oleic acid
[2] = measured here: lipid fluorescence (Fed channel) AC50, cells fed with added oleic acid

SMILES	cell number change [%]	AC50 [1]	AC50 [2]
Cc1nn2c(-c3ccc(F)cc3)ccnc2c1Cl	2.11	0.731 µM [falling, partial curve, poor fit]	16.4 µM [rising, single point]
Cc1cc(O)c(C(C)C)cc1NC(=O)c1ccccc1Cl	-13.9	–	–
CCOC(=O)c1cc(-c2ccccc2)n(CCC(=O)O)c1C	19.8	–	29.1 µM [rising, single point]
Cc1c(NC(=O)c2c(NC(=O)CNC3CC3)sc3c2CCCC3)c(=O)n(-c2ccccc2)n1C	17.9	–	0.00411 µM [rising, full curve, poor fit]
Clc1ccccc1OCCn1cnc2ccccc21	-30.1	16.4 µM [falling, partial curve]	–
O=C(c1cc2ccccc2[nH]1)N(Cc1cccnc1)CC1CCCN(C2CCCCC2)C1 (stereo not drawn)	1.65	–	2.91 µM [falling, single point]
C=CCn1c(SCc2cc(C(=O)OC)c(C)o2)nnc1-c1ccncc1	42.2	20.6 µM [rising, single point]	1.03 µM [rising, full curve, poor fit]
Cc1nc(C(=O)NC(C)C)nn1-c1cc(Cl)cc(Cl)c1	-25.1	1.64 µM [falling, single point]	–
CC(=O)Nc1ccc(S(=O)(=O)Nc2ccc3c(c2)OCCO3)cc1	22.9	–	0.00517 µM [falling, full curve, poor fit]
CCc1ccc(NC(=O)c2cc(-c3ccc(OC)cc3)on2)cc1	13.9	–	6.51 µM [falling, single point]
COC(=O)c1cc(C#N)c(Oc2ccc(OC)cc2)nc1C	104	18.4 µM [rising, single point]	23.1 µM [rising, single point]
Cc1cccc(N(CC(=O)NC(C)(C)C)C(=O)CS(=O)CC(=O)Nc2ccc3c(c2)OCO3)c1 (stereo not drawn)	15.5	–	0.184 µM [rising, full curve, poor fit]
COc1ccc(OC)c(NC(=O)C2CCCNC2=O)c1 (stereo not drawn)	54.2	29.1 µM [rising, partial curve, poor fit]	2.91 µM [rising, single point]
Cn1cc(CNC(=O)C2c3ccccc3Oc3ccccc32)cn1	-2.87	–	–
Cc1ccc(C(=O)c2oc3ccccc3c2NC(=O)c2cc(-c3cc(C)ccc3O)n[nH]2)cc1	-18.4	–	23.1 µM [falling, single point]
CC(C)C[C@H](NC(=O)NCCC1=CCCCC1)C(=O)O	1.6	6.51 µM [falling, single point]	0.0164 µM [rising, full curve, poor fit]
C/C(=N\Nc1ncc(Cl)cc1Cl)c1cccs1	-30.7	–	0.13 µM [falling, full curve, poor fit]
CC(=O)c1ccc(OCC(=O)Nc2ccccc2C(=O)NC2CC2)cc1	-48.2	18.4 µM [falling, partial curve, poor fit]	20.6 µM [falling, partial curve]
CCOC(=O)/C=c1\s/c(=C(\C#N)C(=O)NC)n(-c2ccccc2)c1=O	-3.13	–	25.9 µM [falling, single point]
COC(=O)c1ccc(OCc2nc(N)nc(N3CCOCC3)n2)cc1	5.61	–	0.82 µM [rising, single point]

SMILES	cell number change [%]	AC50 [1]	AC50 [2]
COCCNC(=O)c1ccc(-n2c(SCc3cc(F)ccc3F)nc3ccccc3c2=O)cc1	-60.5	29.1 µM [falling, single point]	29.1 µM [falling, single point]
NS(=O)(=O)c1ccc(O)c(NC(=O)c2ccc([N+](=O)[O-])o2)c1	11.1	–	0.461 µM [falling, single point]
CCOc1ncccc1C(=O)Nc1ccc(C)cn1	22.7	–	18.4 µM [rising, single point]
CC1(C)OC(=O)N(CC(=O)Nc2ccccc2)C1(C)O (stereo not drawn)	17.6	–	–
CC(C)[C@@H](C(=O)NC1CCN(Cc2ccccc2)CC1)N1C(=O)N2CCc3c([nH]c4ccccc34)[C@@]2(C)C1=O	-9.71	–	29.1 µM [falling, single point]
O=C(O)Cc1c(-c2ccccc2)c2cc(Cl)ccc2[nH]c1=O	13.4	–	–
CC(=O)Nc1cccc(-c2nc3ccccc3s2)c1C	10.4	1.3 µM [falling, full curve]	1.46 µM [falling, full curve]
NC(=O)C1CCN(C(=O)C2(NC(=O)Nc3cccc(F)c3)CCCCC2)CC1	19.7	–	–
COc1ccc(Cc2nnc(NC(=O)Nc3ccc(F)cc3)s2)cc1	29.9	–	3.26 µM [rising, full curve]
Oc1ccccc1-c1cc(-c2ccco2)[nH]n1	23.5	–	29.1 µM [rising, partial curve]
COC(=O)CSc1nnc(COc2ccc3ccccc3c2)o1	-9.62	–	29.1 µM [rising, partial curve]
CC(=O)Nc1ccc(C(=O)N(C)C(C(=O)Nc2ccccc2)c2ccccn2)cc1 (stereo not drawn)	–	4.11 µM [falling, single point]	–
C(=N\n1cncn1)/c1ccc(N2CCOCC2)cc1	-9.2	6.51 µM [falling, single point]	6.51 µM [falling, single point]
C/C(CC(=O)Nc1ccccc1-c1ccccc1)=N\NC(=O)COc1ccc(C)cc1Br	–	4.11 µM [rising, partial curve]	–
O=C(CCc1nc(-c2ccccc2F)no1)NCCN1CCOCC1	-79.1	4.61 µM [falling, full curve, poor fit]	1.3 µM [falling, full curve]
CCCCC[C@H]1CN(Cc2ccccc2)C(=O)[C@@H]1CC(=O)NCc1ccc(OC)cc1	-24.6	–	–
Cc1nn(C)cc1S(=O)(=O)N1CCCC(C(=O)O)C1 (stereo not drawn)	4.25	–	0.00517 µM [rising, full curve, poor fit]
COCCCn1cnc2oc3nc4ccccc4nc3c2c1=O	4.18	–	18.4 µM [rising, single point]
COC(=O)c1ccc(CSc2nnc(NC(=O)c3cc4c(s3)CCCC4)s2)cc1	-3.95	6.51 µM [falling, single point]	–
CN(C)c1ccc(NC(=O)Oc2ccccc2)cc1	13	–	29.1 µM [rising, single point]

SMILES	cell number change [%]	AC50 [1]	AC50 [2]
Cc1cc(NC(=O)C(C)Sc2nc(-c3cccs3)nc3ccccc23)no1 (stereo not drawn)	-42.3	20.6 µM [falling, single point]	–
CCN(CCn1cccn1)C(=O)CCc1nnc(Cc2c[nH]c3ccccc23)o1	-41.6	32.6 µM [falling, partial curve]	16.4 µM [falling, partial curve, poor fit]
Cc1ccc(NC(=O)CN2C(=O)NC3(CCCc4ccccc43)C2=O)cc1S(=O)(=O)N1CCOCC1 (stereo not drawn)	-20.5	–	–
COc1ccccc1-c1cn(S(=O)(=O)c2ccc(F)cc2)nc1N	-26.6	–	1.16 µM [rising, single point]
CCCCOc1c(Cl)cc(C(=O)N(C)CC(=O)Nc2ccc(N3CCOCC3)cc2)cc1OCC	15.5	–	13 µM [rising, partial curve]
COc1ccc(/C=C2\SC(=S)N(CCCC(=O)Nc3ccc(C(=O)O)cc3)C2=O)cc1OC	10.3	2.91 µM [rising, single point]	29.1 µM [falling, single point]
Cc1ccc(NC(=O)N2CCN(S(=O)(=O)c3ccccc3)CC2)cc1	18.9	–	2.06 µM [rising, partial curve]
CC1(c2ccccc2)NC(=O)N(CC(=O)Nc2ccc(S(=O)(=O)Nc3ncccn3)cc2)C1=O (stereo not drawn)	-20.5	0.291 µM [falling, full curve, poor fit]	0.651 µM [falling, full curve]
CC(=O)Nc1ccc(Nc2ncc([N+](=O)[O-])c(Nc3ccc(NC(C)=O)cc3)n2)cc1	-6.98	–	–
COc1ccc2c(=O)c3c(=O)n(Cc4ccco4)c(-c4ccccc4)nc3oc2c1	-21.9	–	2.06 µM [rising, partial curve]
NNC(=O)c1csc(COc2cc(Cl)cc(Cl)c2)n1	14.4	–	18.4 µM [rising, single point]
Cc1ccc(N)c(C(O)(C(F)(F)F)C(F)(F)F)c1	-6.81	–	–
Cc1ccc(Cl)cc1N1CCN(C(=O)c2noc(C(C)C)c2[N+](=O)[O-])CC1	-41.1	–	29.1 µM [falling, single point]
COCCN(C(=O)CSc1nnc(-c2ccc(Cl)cc2)o1)c1c(N)n(CC(C)C)c(=O)[nH]c1=O	33.9	–	–
CN(C)CCCNC(=O)c1ccc(CN(c2ccccc2)S(C)(=O)=O)cc1	13.6	–	16.4 µM [rising, partial curve, poor fit]
Cc1ccc(Cl)cc1NC(=O)CNCC(c1ccccc1)N(C)C (stereo not drawn)	4.17	–	29.1 µM [falling, single point]
CCC(CC)NC(=O)c1ccc2c(c1)OCCO2	-48.6	29.1 µM [falling, single point]	–
COc1cccc(C(=O)N/N=C(/CCC(=O)O)c2ccccc2)c1	-1.67	–	7.31 µM [rising, partial curve, poor fit]
COc1cc(C(=O)NCCNC(=O)c2ccc(C)nc2)cc(OC)c1OC	15.1	–	–

Some of the entries above in another layout:
SMILES | cell number change [%] | AC50 [1] | AC50 [2]
Cc1ccc(NC(=O)CN2C(=O)NC3(CCCc4ccccc43)C2=O)cc1S(=O)(=O)N1CCOCC1 (stereo not drawn) | -20.5 | – | –
Cc1ccc(Cl)cc1NC(=O)CNCC(c1ccccc1)N(C)C (stereo not drawn) | 4.17 | – | 29.1 µM [falling, single point]
COc1cc(C(=O)NCCNC(=O)c2ccc(C)nc2)cc(OC)c1OC | 15.1 | – | –
